No constants are given. Whether binding was seen depends on the method and setting. Binding seen in cells or lysates may run through a third protein. Some binding calls cover weakened binding; strength is not graded here.
Molecular target: heterogeneous nuclear ribonucleoprotein K (hnRNPK) (human (endogenous in HCT116p53KO)) (UniProt P61978)
Experiment: co-IP; anti-hnRNPK (ab39975, Abcam) immunoprecipitation from HCT116p53KO lysates with the Magna RIP kit (RNA immunoprecipitation); isotype-matched antibodies as control; eIF4G2 detected by western blot

- binding: binds
B1: eIF4G2 (protein, UniProt P78344 1-907)
chain: MESAIAEGGASRFSASSGGGGSRGAPQHYPKTAGNSEFLGKTPGQNAQKWIPARSTRRDDNSAANNSANEKERHDAIFRKVRGILNKLTPEKFDKLCLELLNVGVESKLILKGVILLIVDKALEEPKYSSLYAQLCLRLAEDAPNFDGPAAEGQPGQKQSTTFRRLLISKLQDEFENRTRNVDVYDKRENPLLPEEEEQRAIAKIKMLGNIKFIGELGKLDLIHESILHKCIKTLLEKKKRVQLKDMGEDLECLCQIMRTVGPRLDHERAKSLMDQYFARMCSLMLSKELPARIRFLLQDTVELREHHWVPRKAFLDNGPKTINQIRQDAVKDLGVFIPAPMAQGMRSDFFLEGPFMPPRMKMDRDPLGGLADMFGQMPGSGIGTGPGVIQDRFSPTMGRHRSNQLFNGHGGHIMPPTQSQFGEMGGKFMKSQGLSQLYHNQSQGLLSQLQGQSKDMPPRFSKKGQLNADEISLRPAQSFLMNKNQVPKLQPQITMIPPSAQPPRTQTPPLGQTPQLGLKTNPPLIQEKPAKTSKKPPPSKEELLKLTETVVTEYLNSGNANEAVNGVREMRAPKHFLPEMLSKVIILSLDRSDEDKEKASSLISLLKQEGIATSDNFMQAFLNVLDQCPKLEVDIPLVKSYLAQFAARAIISELVSISELAQPLESGTHFPLFLLCLQQLAKLQDREWLTELFQQSKVNMQKMLPEIDQNKDRMLEILEGKGLSFLFPLLKLEKELLKQIKLDPSPQTIYKWIKDNISPKLHVDKGFVNILMTSFLQYISSEVNPPSDETDSSSAPSKEQLEQEKQLLLSFKPVMQKFLHDHVDLQVSALYALQVHCYNSNFPKGMLLRFFVHFYDMEIIEEEAFLAWKEDITQEFPGKGKALFQVNQWLTWLETAEEEESEEEAD
